Assay results from paper PMC4571087.
Results are given in words; binding and its absence hold for the method and conditions named. Some results given as binding are weak or reduced against the parent protein; the word gives no strength. Tags and fused reporters may be left off the sequences shown.

By UniProt entry, the sequences of proteins in these tests, tags left out.
UniProt P38682: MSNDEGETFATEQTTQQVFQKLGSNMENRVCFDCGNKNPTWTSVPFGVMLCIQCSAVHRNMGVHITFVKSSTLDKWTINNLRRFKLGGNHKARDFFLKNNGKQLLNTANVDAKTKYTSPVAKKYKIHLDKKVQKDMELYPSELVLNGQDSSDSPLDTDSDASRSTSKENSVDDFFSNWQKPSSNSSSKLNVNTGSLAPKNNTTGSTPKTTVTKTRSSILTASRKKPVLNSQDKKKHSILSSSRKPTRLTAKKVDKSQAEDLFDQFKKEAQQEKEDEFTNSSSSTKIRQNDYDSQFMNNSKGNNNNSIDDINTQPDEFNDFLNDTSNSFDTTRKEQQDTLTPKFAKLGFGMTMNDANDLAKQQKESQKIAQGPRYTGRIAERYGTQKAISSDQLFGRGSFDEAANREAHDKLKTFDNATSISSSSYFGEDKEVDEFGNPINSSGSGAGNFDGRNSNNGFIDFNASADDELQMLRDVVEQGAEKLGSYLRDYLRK

Molecular target: Glo3 fused to LexA (bait, pEG202) (S. cerevisiae) (UniProt P38682)
Assay: two-hybrid; Glo3 fused to LexA as bait (pEG202), target proteins fused to B42 (pJG4-5); beta-galactosidase assay, Miller units, triplicates

binding: binds
B1: Erg3 fused to B42 (prey, pJG4-5) (protein, UniProt P32353 1-365)
chain: MDLVLEVADHYVLDDLYAKVLPASLAANIPVKWQKLLGLNSGFSNSTILQETLNSKNAVKECRRFYGQVPFLFDMSTTSFASLLPRSSILREFLSLWVIVTIFGLLLYLFTASLSYVFVFDKSIFNHPRYLKNQMAMEIKLAVSAIPWMSMLTVPWFVMELNGHSKLYMKIDYENHGVRKLIIEYFTFIFFTDCGVYLAHRWLHWPRVYRALHKPHHKWLVCTPFASHSFHPVDGFLQSISYHIYPLILPLHKVSYLILFTFVNFWTVMIHDGQYLSNNPAVNGTACHTVHHLYFNYNYGQFTTLWDRLGGSYRRPDDSLFDPKLRDAKETWDAQVKEVEHFIKEVEGDDNDRIYENDPNTKKNN
